Assay results taken from EP0374919A1, “Morphine derivative” (Chugai Seiyaku Kabushiki Kaisha, priority 1988, dated 1990).
Read-outs that look alike come from different tables or passages of the source.

Tested on: extirpated guinea pig ileum pieces
Experiment: Transmural electric stimulation test on an extirpated guinea pig ileum piece (smooth muscle contraction)
Format: cell-based
Description: Example 7 Transmural Electric Stimulation Test on an Extirpated Guinea Pig Ileum Piece:
The effects of the compounds were examined by applying transmural electric stimulation (0.1 Hz) to extirpated guinea pig ileum pieces while using the smooth muscle contraction as an indication [refer to H.K. Kopsterlitz, A.A. Waterfield; Annu. Rev. Pharmacol., 15, 29 - 47 (1975)].
The data shown in Table 1 were calculated according to a method reported by Arunlakshana and Schild [refer to 0. Arunlakashana, H.O. Schild; Brit. J. Pharmacol., 14, 48 - 58 (1959)]. Each value is expressed in mean ± standard deviation.

[1] = slope belonging to pA₂ (naloxone), method of Arunlakshana and Schild, mean ± standard deviation

SMILES	Slope	Slope [1]
CN1CC[C@]23c4c5ccc(O)c4O[C@H]2[C@@H](O)C=C[C@H]3[C@H]1C5.Cl [Morphine hydrochloride, reference compound]	(1.03 ± 0.09)	–
CC(=O)S[C@@H]1C=C[C@H]2[C@H]3Cc4ccc(O)c5c4[C@@]2(CCN3CC2CC2)[C@H]1O5 [Compound VI, 6β-acetylthio-N-cyclopropylmethylnormorphine]	–	(0.93 ± 0.09)
CC(=O)Oc1ccc2c3c1O[C@H]1[C@H](SC(C)=O)C=C[C@H]4[C@@H](C2)N(CC2CC2)CC[C@@]341.Cl [Compound VII, 3-acetyl-6β-acetylthio-N-cyclopropylmethylnormorphine hydrochloride]	–	(0.84 ± 0.11)
